In patent US7144586B2, “Compositions for preventing hormone induced adverse effects” (Lycored Natural Products Industries Ltd., priority 2000, dated 2006):
For at least one compound, name, drawing or mass did not settle the structure.

Legend:
[1] = test system: MCF-7 mammary cancer cells (estrogen dependent); assay: MCF-7 mammary cancer cell proliferation assay ([3H]thymidine incorporation); type: cell-based, human; settings: 1 and 10 nM (FIG. 2, panel B)
Procedure: (§1) Tetrahydrofuran (THF) containing 0.25% butylated hydroxytoluene was added to purified carotenoids as an antioxidant. Carotenoids were dissolved in THF at a concentration of 2 mMM and stored at −70 C. Immediately before use, stock solutions were thawed and added to the cell culture medium under nitrogen, followed by vigorous stirring. Precipitates formed were removed by filtration through Millex-HV filter (Millipore). Final carotenoid concentrations in the medium were determined by spectrophotometry after extraction in 2-propanol and n-hexane:dichloronomethane, as in U.S. Pat. No. 5,827,900.
The human endometrial cancer (estrogen dependent) cell line ECC-1 was developed by Dr. P. G. Satyaswaroop, Pennslyvania State University, Pennsylvania, U.S.A, and generously provided to us by Dr. R. Oregan, Northwestern University, Chicago, Ill., U.S.A. Human mammary cancer cell lines MCF-7 (estrogen dependent) and MDA-231 (hormone independent) were obtained from the American Type Culture Collection (Rockville, Md.). […]
(§2) After incubation, the number of cells and the rate of cell proliferation were estimated by the incorporation of [^3H]thymidine incorporation into cellular DNA, as described in U.S. Pat. No. 5,827,900. Cell growth was also measured by direct cell counting with a Coulter counter after trypsinization and dilution in Isotone-II (Coulter Electronics, Luton, England). […]

[2] = test system: ECC-1 endometrial cancer cells; assay: ECC-1 endometrial cancer cell proliferation assay ([3H]thymidine incorporation); type: cell-based, human; settings: 1 and 10 nM (FIG. 2, panel B)
Procedure: as §1, with “5,827,900. […]” for “5,827,900.”
as §2
ECC-1 cells were incubated with increasing concentrations of the isoflavones genistein and daidzein, the two primary isoflavones in soy products, and with soy extract. Cell proliferation after three days was measured by [^3H]thymidine incorporation into DNA (FIG. 1, panel A). […]

C[C@]12CC[C@@H]3c4ccc(O)cc4CC[C@H]3[C@@H]1CC[C@@H]2O [Estradiol]
effect on cell growth [1]: only stimulatory for cell growth
effect on cell growth [2]: only stimulatory for cell growth
